From patent US20100056764A1
These are yes or no findings as the source states them, for the method shown. Some results given as binding are weak or reduced against the parent protein; the word gives no strength. Tags and fused reporters may be left off the sequences shown.

The chains behind the UniProt entries cited, without tags or fusion partners. Where a name states a change or a piece, a line headed by the entry shows the natural chain unless it says otherwise.
UniProt P26718: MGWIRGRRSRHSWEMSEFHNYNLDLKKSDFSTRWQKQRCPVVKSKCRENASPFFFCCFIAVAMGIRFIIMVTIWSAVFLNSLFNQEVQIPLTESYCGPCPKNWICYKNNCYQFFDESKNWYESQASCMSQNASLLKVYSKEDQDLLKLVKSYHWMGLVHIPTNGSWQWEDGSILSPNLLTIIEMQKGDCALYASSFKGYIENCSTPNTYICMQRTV

Target: human NKG2D (hNKG2D) on the cell surface (human) (UniProt P26718)
Test: flow cytometry, MICA-mFc on NKG2D/DAP10-expressing BaF/3 cells, with and without pre-incubation with an unnamed human anti-NKG2D hybridoma supernatant

B1: MICA-mFc (MICA fused to murine Fc) (Fc fusion, UniProt Q29983 24-307, looked up, not shown: a dimerising Fc or GST)
chain: EPHSLRYNLTVLSWDGSVQSGFLTEVHLDGQPFLRCDRQKCRAKPQGQWAEDVLGNKTWDRETRDLTGNGKDLRMTLAHIKDQKEGLHSLQEIRVCEIHEDNSTRSSQHFYYDGELFLSQNLETKEWTMPQSSRAQTLAMNVRNFLKEDAMKTKTHYHAMHADCLQELRRYLKSGVVLRRTVPPMVNVTRSEASEGNITVTCRASGFYPWNITLSWRQDGVSLSHDTQQWGDVLPDGNGTYQTWVATRICQGEEQRFTCYMEHSGNHSTHPVPSGKVLVLQSHW
For B1, the binding was “binds”.
